Some of the results follow. Residues, ends and D or L forms follow the SMILES beside them. *: point of attachment. Cbz = O=C(OCc1ccccc1)*
Columns and labels:
Test in all cases: log2 fold change, soluble protein after heating vs DMSO (PISA); higher = thermal stabilisation; K562 cells, 10 uM, 30 min; active = over 0.2 and 3.5 SD of the protein, either way, in both replicates (recomputed)
[1] = compound: C#Cc1cccc(Nc2ncnc3cc(OCCOC)c(OCCOC)cc23)c1 [erlotinib]
Method in brief: (§1)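 Soluble protein was quantified by TMTpro 16plex LC-MS/MS after channel sums were equalised. It was obtained as the supernatant after 21,000xg for 90 min from pooled aliquots of K562 cells (2×10^6 cells/mL, 10 μM compound, 30 min) heated for 3 min across 48°C-58°C and extracted in PBS with 0.5% NP-40 at 4°C. Thermal stability values are relative to control samples and come from duplicates. They are given as log2 fold changes.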

Amino acid sequences for entries named in this document (tags omitted). A change or cut given only in a name is not applied to a line headed by its entry.
UniProt Q9Y4E6, whole entry, looked up: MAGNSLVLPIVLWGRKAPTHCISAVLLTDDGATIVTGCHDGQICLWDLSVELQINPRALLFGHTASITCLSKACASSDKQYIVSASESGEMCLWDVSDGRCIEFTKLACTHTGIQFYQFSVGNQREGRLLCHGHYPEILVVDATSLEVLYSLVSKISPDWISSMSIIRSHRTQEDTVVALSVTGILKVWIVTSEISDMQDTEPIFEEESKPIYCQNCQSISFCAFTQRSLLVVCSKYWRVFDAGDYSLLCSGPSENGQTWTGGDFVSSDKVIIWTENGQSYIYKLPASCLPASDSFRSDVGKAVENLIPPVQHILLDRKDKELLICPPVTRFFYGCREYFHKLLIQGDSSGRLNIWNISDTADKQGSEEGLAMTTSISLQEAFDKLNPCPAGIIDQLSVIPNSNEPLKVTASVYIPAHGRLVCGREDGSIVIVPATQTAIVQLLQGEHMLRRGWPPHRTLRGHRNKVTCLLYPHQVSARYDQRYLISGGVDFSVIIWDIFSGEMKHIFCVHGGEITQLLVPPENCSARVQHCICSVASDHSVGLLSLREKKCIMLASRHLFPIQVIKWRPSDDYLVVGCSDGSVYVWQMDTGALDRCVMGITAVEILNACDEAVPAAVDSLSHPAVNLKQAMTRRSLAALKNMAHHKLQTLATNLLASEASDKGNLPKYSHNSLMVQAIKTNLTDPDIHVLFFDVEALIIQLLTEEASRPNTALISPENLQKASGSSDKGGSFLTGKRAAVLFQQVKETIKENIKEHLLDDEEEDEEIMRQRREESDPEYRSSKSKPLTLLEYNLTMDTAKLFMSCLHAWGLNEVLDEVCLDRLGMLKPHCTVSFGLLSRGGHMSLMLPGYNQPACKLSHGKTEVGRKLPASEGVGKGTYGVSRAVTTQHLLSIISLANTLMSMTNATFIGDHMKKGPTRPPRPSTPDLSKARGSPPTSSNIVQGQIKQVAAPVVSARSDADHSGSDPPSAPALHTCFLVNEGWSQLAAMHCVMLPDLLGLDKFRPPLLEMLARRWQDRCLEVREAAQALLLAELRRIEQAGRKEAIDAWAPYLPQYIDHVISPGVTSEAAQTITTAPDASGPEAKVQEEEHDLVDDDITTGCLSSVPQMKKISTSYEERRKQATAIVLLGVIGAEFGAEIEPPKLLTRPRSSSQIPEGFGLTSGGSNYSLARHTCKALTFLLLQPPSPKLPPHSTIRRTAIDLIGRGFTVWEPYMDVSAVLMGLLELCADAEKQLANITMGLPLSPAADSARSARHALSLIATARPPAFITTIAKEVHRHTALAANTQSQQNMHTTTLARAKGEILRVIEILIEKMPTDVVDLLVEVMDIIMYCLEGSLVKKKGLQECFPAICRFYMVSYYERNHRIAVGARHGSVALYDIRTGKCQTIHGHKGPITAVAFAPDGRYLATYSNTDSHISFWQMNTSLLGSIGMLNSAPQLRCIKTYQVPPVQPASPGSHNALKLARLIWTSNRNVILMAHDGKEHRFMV
UniProt Q15061: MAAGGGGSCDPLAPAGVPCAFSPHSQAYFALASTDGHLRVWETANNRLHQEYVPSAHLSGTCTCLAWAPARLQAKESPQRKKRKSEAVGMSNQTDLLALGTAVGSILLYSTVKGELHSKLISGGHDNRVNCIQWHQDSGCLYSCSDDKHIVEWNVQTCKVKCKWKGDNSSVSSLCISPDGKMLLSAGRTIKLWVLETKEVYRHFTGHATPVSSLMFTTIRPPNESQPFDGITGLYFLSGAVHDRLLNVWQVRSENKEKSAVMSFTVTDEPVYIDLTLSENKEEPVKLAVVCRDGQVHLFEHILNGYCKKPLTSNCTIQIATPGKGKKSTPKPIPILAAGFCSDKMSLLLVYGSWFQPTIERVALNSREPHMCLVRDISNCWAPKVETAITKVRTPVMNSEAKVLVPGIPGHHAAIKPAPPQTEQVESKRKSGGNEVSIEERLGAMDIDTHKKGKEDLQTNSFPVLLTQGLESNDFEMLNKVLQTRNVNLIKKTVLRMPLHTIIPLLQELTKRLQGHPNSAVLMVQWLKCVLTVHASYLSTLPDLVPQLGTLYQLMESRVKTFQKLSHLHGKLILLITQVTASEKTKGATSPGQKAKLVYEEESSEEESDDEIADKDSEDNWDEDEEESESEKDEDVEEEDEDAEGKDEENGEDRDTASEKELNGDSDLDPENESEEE
UniProt Q15007: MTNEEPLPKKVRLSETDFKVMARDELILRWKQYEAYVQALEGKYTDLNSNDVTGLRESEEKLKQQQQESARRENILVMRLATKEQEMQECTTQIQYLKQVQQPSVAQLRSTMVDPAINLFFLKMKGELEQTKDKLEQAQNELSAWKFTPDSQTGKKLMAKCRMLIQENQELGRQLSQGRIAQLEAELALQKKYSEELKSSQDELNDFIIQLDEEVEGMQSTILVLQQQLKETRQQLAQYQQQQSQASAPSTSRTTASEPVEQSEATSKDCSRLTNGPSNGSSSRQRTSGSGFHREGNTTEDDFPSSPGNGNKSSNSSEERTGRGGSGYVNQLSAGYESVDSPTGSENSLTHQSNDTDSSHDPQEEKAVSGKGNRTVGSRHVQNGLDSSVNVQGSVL
UniProt Q3ZAQ7: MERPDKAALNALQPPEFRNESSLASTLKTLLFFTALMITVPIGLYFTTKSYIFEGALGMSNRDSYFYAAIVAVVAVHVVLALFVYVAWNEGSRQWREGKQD
UniProt P45880: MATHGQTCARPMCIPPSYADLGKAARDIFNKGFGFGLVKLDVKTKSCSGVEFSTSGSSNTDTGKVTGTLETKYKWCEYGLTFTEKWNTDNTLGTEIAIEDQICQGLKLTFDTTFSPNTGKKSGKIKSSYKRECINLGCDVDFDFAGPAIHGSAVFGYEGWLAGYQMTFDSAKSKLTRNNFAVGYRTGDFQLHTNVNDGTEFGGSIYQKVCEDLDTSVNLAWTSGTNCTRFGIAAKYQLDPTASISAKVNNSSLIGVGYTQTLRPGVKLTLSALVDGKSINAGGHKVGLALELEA
UniProt Q9P253: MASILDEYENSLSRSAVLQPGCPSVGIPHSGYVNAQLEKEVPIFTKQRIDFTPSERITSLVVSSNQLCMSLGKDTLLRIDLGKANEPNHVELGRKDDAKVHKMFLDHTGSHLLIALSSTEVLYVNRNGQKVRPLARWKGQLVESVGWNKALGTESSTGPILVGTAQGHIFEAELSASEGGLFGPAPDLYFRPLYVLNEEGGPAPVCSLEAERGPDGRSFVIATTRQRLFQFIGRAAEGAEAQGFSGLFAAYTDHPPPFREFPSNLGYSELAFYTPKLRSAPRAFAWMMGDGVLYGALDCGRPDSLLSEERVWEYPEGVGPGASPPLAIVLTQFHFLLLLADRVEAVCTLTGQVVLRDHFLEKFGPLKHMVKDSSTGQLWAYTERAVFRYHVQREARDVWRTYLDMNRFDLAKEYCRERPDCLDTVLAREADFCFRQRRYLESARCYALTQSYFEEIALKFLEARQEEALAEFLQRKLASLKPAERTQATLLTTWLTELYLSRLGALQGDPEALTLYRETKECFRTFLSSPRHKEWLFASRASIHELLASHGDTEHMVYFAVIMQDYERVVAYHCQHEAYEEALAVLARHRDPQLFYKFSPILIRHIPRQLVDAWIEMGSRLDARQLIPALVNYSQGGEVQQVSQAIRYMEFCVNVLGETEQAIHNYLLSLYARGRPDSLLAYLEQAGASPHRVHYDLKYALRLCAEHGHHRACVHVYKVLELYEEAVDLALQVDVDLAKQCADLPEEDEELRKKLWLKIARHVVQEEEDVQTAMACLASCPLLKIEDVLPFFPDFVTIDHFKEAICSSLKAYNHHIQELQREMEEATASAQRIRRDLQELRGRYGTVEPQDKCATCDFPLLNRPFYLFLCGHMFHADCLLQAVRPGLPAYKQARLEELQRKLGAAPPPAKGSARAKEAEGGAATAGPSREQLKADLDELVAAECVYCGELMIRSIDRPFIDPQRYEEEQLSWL
UniProt O43516: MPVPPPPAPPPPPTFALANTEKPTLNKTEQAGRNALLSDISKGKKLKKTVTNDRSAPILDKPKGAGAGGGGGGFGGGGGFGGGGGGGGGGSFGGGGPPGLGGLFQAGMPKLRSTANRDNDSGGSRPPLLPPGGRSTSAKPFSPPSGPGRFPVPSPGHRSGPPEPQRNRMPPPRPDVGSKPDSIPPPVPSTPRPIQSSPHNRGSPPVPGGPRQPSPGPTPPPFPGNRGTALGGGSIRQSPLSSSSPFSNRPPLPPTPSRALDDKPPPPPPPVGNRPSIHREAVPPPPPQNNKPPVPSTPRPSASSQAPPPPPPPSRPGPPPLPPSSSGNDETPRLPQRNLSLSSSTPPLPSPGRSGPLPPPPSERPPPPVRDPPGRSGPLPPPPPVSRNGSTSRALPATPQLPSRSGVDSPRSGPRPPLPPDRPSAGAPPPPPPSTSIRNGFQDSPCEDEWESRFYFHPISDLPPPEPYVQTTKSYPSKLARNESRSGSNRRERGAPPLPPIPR
UniProt P21796, whole entry, looked up: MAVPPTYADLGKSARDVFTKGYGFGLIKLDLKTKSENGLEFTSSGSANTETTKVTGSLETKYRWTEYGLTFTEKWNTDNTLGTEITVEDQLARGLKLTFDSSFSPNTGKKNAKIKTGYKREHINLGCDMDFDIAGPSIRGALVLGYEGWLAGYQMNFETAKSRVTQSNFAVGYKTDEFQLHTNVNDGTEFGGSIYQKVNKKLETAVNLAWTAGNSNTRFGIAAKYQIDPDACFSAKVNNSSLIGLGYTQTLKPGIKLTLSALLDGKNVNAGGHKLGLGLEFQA
UniProt Q12768: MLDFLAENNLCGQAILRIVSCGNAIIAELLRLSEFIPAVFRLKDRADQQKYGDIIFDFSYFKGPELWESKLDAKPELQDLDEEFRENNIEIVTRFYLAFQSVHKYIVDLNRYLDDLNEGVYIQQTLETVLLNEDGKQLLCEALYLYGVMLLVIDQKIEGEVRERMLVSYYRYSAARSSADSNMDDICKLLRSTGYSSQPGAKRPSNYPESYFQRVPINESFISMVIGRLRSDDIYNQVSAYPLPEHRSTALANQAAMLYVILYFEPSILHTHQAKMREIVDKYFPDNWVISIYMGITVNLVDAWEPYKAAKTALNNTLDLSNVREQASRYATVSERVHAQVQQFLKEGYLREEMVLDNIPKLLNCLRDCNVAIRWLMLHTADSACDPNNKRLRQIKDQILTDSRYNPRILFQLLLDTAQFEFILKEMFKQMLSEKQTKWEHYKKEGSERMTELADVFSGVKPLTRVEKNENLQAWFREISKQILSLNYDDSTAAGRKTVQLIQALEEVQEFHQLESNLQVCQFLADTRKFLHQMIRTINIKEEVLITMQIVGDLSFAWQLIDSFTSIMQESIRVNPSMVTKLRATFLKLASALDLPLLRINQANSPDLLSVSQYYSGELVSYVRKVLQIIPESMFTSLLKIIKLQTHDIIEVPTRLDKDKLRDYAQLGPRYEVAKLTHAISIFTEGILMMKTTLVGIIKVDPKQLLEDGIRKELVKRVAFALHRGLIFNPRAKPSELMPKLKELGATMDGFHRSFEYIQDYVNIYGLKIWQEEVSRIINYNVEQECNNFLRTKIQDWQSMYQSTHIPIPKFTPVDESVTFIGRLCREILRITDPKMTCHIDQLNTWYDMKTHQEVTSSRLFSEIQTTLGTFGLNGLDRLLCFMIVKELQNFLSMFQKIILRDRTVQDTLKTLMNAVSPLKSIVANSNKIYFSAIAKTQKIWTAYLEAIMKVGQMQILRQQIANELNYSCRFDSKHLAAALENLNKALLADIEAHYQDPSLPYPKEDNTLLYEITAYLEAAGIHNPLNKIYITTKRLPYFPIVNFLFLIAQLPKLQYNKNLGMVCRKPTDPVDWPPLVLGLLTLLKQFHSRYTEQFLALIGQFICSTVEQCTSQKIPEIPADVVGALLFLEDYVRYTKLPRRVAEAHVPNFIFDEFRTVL
UniProt Q96P53: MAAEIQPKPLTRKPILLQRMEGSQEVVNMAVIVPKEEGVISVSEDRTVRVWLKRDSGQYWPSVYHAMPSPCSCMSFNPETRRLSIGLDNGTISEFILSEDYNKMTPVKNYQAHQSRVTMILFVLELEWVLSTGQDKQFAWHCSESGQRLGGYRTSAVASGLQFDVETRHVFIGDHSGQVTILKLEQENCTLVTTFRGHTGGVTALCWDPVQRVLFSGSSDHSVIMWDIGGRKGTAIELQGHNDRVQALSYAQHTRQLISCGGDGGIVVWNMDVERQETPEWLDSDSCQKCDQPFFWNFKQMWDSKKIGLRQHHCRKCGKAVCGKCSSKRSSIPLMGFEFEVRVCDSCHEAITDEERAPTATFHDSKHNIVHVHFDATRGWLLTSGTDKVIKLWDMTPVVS

[2] = compound: C/C(=N\NC(=O)C1=CC(=CC=C1)S(=O)(=O)N2CCOCC2)/C3=C(C=CC(=C3)Cl)O
Method in brief: as §1

[3] = compound: C1=CC(=C(C=C1Cl)C2=NC3=NC=CN=C3C(=N2)NC4=CC=NC=C4)F
Method in brief: as §1

[4] = compound: C1=CC(=CC=C1C2=NC3=C(N2)C=C(C=C3)C(=O)N)OC4=CC=C(C=C4)Cl
Method in brief: as §1

[5] = compound: C1=CC2=C(C=CC(=C2)/C=C\3/C(=O)NC(=NCC4=CC=CS4)S3)N=C1
Method in brief: as §1

[6] = compound: C1=CC2=NC=CN=C2C=C1/C=C/3\C(=O)NC(=O)S3
Method in brief: as §1

[7] = compound: C1=CC=C(C=C1)C2=NC(=C(N2)C3=CC=NC=C3)C4=CC(=C(C=C4)Cl)O
Method in brief: as §1

[8] = compound: C1=CC=C2C(=C1)C3=NNC4=CC=CC(=C43)C2=O
Method in brief: as §1

[9] = compound: C1CCN(C1)C(=O)NC2=CC=CC(=C2)NC3=NC=C(C(=N3)NCCC4=CN=CN4)Br
Method in brief: as §1

[10] = compound: C1CN(CCC1(CC2=CC=C(C=C2)Cl)N)C3=NC=NC4=C3C=CN4
Method in brief: as §1

[11] = compound: C1COCCN1CCN2C3=CC=CC=C3N=C2NC(=O)C4=CC(=CC=C4)[N+](=O)[O-] [IRAK-1-4 Inhibitor I]
Method in brief: as §1

[12] = compound: C=CC(=O)N1CCC[C@@H](n2nc(-c3ccc(Oc4ccccc4)cc3)c3c(N)ncnc32)C1 [ibrutinib]
Method in brief: as §1

[13] = compound: CC(=O)c1cnc2ccc(-c3cc(Cl)c(O)c(Cl)c3)nc2c1N[C@H]1CC[C@H](CN(C)C)CC1
Method in brief: as §1

[14] = compound: CC(C)(C)Cn1c(N)nc2ccc(-c3[nH]c(C(C)(C)C)nc3-c3ccc(F)cc3)nc21 [ralimetinib]
Method in brief: as §1

[15] = compound: CC(C)(O)CC(=O)NCCn1ccc2ncnc(Nc3ccc(Oc4cccc(C(F)(F)F)c4)c(Cl)c3)c21
Method in brief: as §1

[16] = compound: CC(C)C1=C2N=C(C=C(N2N=C1)NCC3=CC=CC=C3)NCCCCCCN
Method in brief: as §1

[17] = compound: CC(C)C[C@@H](C=O)NC(=O)[C@H](CC(C)C)NC(=O)[C@H](CC(C)C)NC(=O)OCc1ccccc1
Method in brief: as §1

[18] = compound: CC(C)N(C[C@H]1O[C@@H](n2cnc3c(N)ncnc32)[C@H](O)[C@@H]1O)[C@H]1C[C@@H](CCc2nc3cc(C(C)(C)C)ccc3[nH]2)C1 [pinometostat]
Method in brief: as §1

[19] = compound: CC1=C(C2=C(C=C1)C(=O)C3=CC=CC=C3N2CCCN)C
Method in brief: as §1

[20] = compound: CC1=C(C(CC(=O)N1)C2=CC=C(C=C2)C(F)(F)F)C(=O)NC3=C(C=C4C(=C3)C=NN4)F
Method in brief: as §1

Target | log2 fold change [1] | log2 fold change [2] | log2 fold change [3] | log2 fold change [4] | log2 fold change [5] | log2 fold change [6] | log2 fold change [7] | log2 fold change [8] | log2 fold change [9] | log2 fold change [10] | log2 fold change [11] | log2 fold change [12] | log2 fold change [13] | log2 fold change [14] | log2 fold change [15] | log2 fold change [16] | log2 fold change [17] | log2 fold change [18] | log2 fold change [19] | log2 fold change [20]
WDR7 (UniProt Q9Y4E6) | inactive: 0.06 | inactive: 0.074 | inactive: 0.065 | inactive: -0.049 | inactive: 0.092 | inactive: -0.001 | inactive: 0.099 | inactive: 0.028 | inactive: -0.009 | inactive: -0.02 | inactive: -0.112 | inactive: -0.027 | inactive: -0.078 | inactive: 0.067 | inactive: -0.141 | active: -0.429 | inactive: 0.1 | inactive: 0.062 | inactive: 0.122 | –
WDR43 (UniProt Q15061) | inactive: 0.001 | inactive: -0.003 | inactive: 0.008 | inactive: -0.001 | inactive: -0.028 | inactive: 0.015 | inactive: -0.008 | inactive: 0.017 | inactive: -0.013 | inactive: 0.042 | inactive: 0.023 | inactive: 0.019 | inactive: 0.012 | inactive: -0.088 | inactive: -0.003 | inactive: 0.199 | inactive: -0.039 | inactive: -0.035 | active: 0.222 | –
WTAP (UniProt Q15007) | inactive: -0.156 | inactive: 0.134 | – | inactive: 0.035 | inactive: -0.232 | – | – | inactive: -0.111 | – | – | – | – | inactive: -0.121 | – | – | inactive: 0.089 | – | – | – | –
VMA21 isoform 2 (UniProt Q3ZAQ7) | inactive: 0.037 | inactive: 0.117 | inactive: 0.051 | inactive: 0.114 | inactive: -0.174 | inactive: 0.061 | – | inactive: 0.043 | inactive: 0.014 | inactive: 0.136 | inactive: 0.03 | inactive: 0.057 | inactive: 0.01 | – | inactive: 0.082 | inactive: 0.155 | – | inactive: -0.035 | inactive: -0.049 | inactive: 0.002
VDAC2 (UniProt P45880) | inactive: -0.03 | inactive: -0.004 | inactive: 0.034 | inactive: 0.006 | inactive: 0.017 | inactive: -0.013 | inactive: -0.019 | inactive: -0.016 | inactive: 0.018 | inactive: 0.065 | inactive: 0.037 | – | inactive: 0.004 | inactive: -0.03 | inactive: 0.014 | inactive: 0.051 | inactive: -0.023 | inactive: -0.017 | inactive: -0.018 | inactive: 0.006
VPS18 (UniProt Q9P253) | inactive: 0.026 | inactive: 0.065 | inactive: 0.019 | inactive: 0.023 | inactive: 0.04 | inactive: 0.04 | inactive: -0.086 | inactive: -0.012 | inactive: -0.006 | inactive: -0.024 | inactive: -0.02 | inactive: -0.029 | inactive: -0.029 | inactive: -0.037 | inactive: -0.024 | inactive: -0.319 | inactive: 0.053 | inactive: 0.055 | inactive: 0.059 | –
WIPF1 isoform 3 (UniProt O43516) | inactive: -0.101 | inactive: 0.061 | – | inactive: 0.044 | inactive: 0.06 | inactive: 0.027 | inactive: -0.02 | inactive: -0.074 | inactive: -0.317 | inactive: 0.348 | inactive: 0.065 | inactive: 0.049 | inactive: 0.047 | inactive: -0.069 | – | inactive: 0.077 | inactive: 0.082 | inactive: 0.039 | inactive: -0.199 | inactive: 0.107
VDAC1 (UniProt P21796) | inactive: -0.006 | inactive: 0 | inactive: 0.039 | inactive: -0.003 | inactive: -0.023 | inactive: 0.006 | inactive: -0.004 | inactive: 0.005 | inactive: 0.006 | inactive: 0.067 | inactive: 0.07 | – | inactive: 0.02 | inactive: -0.035 | inactive: 0.021 | inactive: 0.058 | inactive: -0.039 | inactive: -0.032 | inactive: -0.016 | –
WASHC5 (UniProt Q12768) | inactive: 0.019 | inactive: 0.084 | inactive: -0.061 | inactive: -0.004 | inactive: 0.088 | inactive: -0.058 | inactive: 0.04 | inactive: 0.018 | inactive: 0.002 | inactive: 0.002 | inactive: -0.042 | inactive: 0.007 | inactive: -0.024 | inactive: 0.072 | inactive: -0.116 | active: -0.277 | inactive: 0.003 | inactive: 0.067 | inactive: -0.014 | –
WARS2 (UniProt Q9UGM6) | inactive: 0.069 | inactive: -0.016 | inactive: 0.034 | inactive: -0.094 | inactive: 0.033 | inactive: 0.006 | inactive: -0.032 | inactive: 0.031 | inactive: 0.027 | inactive: -0.027 | inactive: -0.016 | inactive: -0.075 | inactive: -0.031 | inactive: -0.017 | inactive: -0.144 | inactive: -0.204 | inactive: 0.016 | inactive: -0.053 | inactive: -0.004 | –
WDFY2 (UniProt Q96P53) | inactive: 0.031 | inactive: -0.025 | – | inactive: 0.072 | inactive: -0.164 | – | – | inactive: -0.077 | inactive: -0.079 | inactive: 0.098 | – | – | inactive: -0.241 | – | – | inactive: -0.204 | – | – | inactive: -0.083 | –
